Measured values published in PubChem BioAssay AID1688 (National Center for Advancing Translational Sciences (NCATS), 2009).
Among all 220,000 compounds or so, about 2,400 (1.1%) were called active. Inconclusive results, whose numbers are uncertain, are shown with a selection of clear calls. Calls follow the shape of the dose curve; as a rule, active = well fitted inhibition curve with a large enough effect; inconclusive = small, poorly fitted or top-dose-only effect, or effect the other way; inactive = no such curve, though single readings can be large or run the other way. A potency beside an inconclusive call is a rough fit, not a confirmed value.

Experiment: qHTS Multiplex Assay to Identify Dual Action Probes in a Cell Model of Huntington: Aggregate Formation (GFP); also: nearly all actives have a fitted effect of over 60% in size
Conditions: PC12 HttQ103-GFP aggregates, Acumen cytometry, 40 h; activity change, negative = inhibition: at 46.1 µM (top of the series) unless noted
Summary of the method: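 Inducible Q103 Huntingtin exon 1–GFP PC12 line, 1500 cells/well in phenol red free DMEM with 5% equine and 5% calf serum. Tebufenozide 100 nM induced expression; compounds titrated; aggregates quantified by cytometry.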
% is scaled to controls: 0 for no effect and ±100 for the full control effect; potency is read from the fitted curve at half-maximal effect.

SMILES	Potency	activity change, negative = inhibition
O=C1c2ccccc2C(=O)C12OC2c1cccc2ccccc12 (stereo not given)	active: 35.5 µM	
Cc1nc2c(C(=O)NCc3ccco3)cnn2c(C)c1Cc1ccc(F)cc1Cl	inconclusive: 35.5 µM [inhibitor, single point]	
COc1cc(C(=O)Sc2ccc(C)cc2)cc(OC)c1OC	inconclusive: 35.5 µM [activator, single point]	
O=[N+]([O-])c1ccc(N2CCN(C(=S)c3cccc([N+](=O)[O-])c3)CC2)cc1		inactive: -3.98% [at 9.22 µM]
COc1ccc(CCNc2nnc(Sc3nnnn3-c3ccccc3)s2)cc1OC	inconclusive: 35.5 µM [activator, single point]	
Cc1ccc(NC(=O)C(C)N2C(=O)c3ccccc3C2=O)cc1 (stereo not given)	inconclusive: 35.5 µM [activator, single point]	
CCOC(=O)C1(C)C=C(Nc2cccc(OC)c2)C(=O)N1c1ccccc1 (stereo not given)		inactive: 18.5% [at 9.22 µM]
O=C(CCCN1C(=O)c2cccc3cccc(c23)C1=O)N1CCN(c2ncccn2)CC1	inconclusive: 0.501 µM [activator, partial curve]	
O=c1c2cnn(-c3ccccc3)c2ncn1Cc1cccc(Cl)c1	inactive	
COc1cc(/C=C/C(=O)OCC(=O)NC(=O)NC(C)C)ccc1O		inactive: 21.7% [at 9.22 µM]
CC(OC(=O)CN(C)S(=O)(=O)c1ccc(Cl)cc1)C(=O)Nc1ccc(N2CCOCC2)cc1 (stereo not given)	inactive	
COC(=O)N/N=C/c1cccc(OCCSc2ccc(Cl)cc2)c1	inconclusive: 11.2 µM [inhibitor, partial curve]	
COc1ccc(C2CC(c3ccc(Cl)cc3)=NN2C(=O)c2cccc([N+](=O)[O-])c2)cc1 (stereo not given)	inconclusive: 1.26 µM [inhibitor, single point]	
O=C(NCc1ccc(Cl)cc1)c1ccccc1Oc1ccccc1	inconclusive: 17.8 µM [inhibitor, single point]	
CCOC(=O)N1CCN(C(=O)CCl)CC1	inconclusive: 35.5 µM [inhibitor, single point]	
Cc1ccnc(NC(=S)NC(=O)/C=C/c2ccco2)c1	inconclusive: 14.1 µM [activator, single point]	
COC(=O)c1c(NC(=O)COC(=O)Cn2cnc3ccccc32)sc(C)c1C	inactive	
COC(=O)c1cc(NC(=O)Nc2cccc(Cl)c2)ccc1Cl	inconclusive: 35.5 µM [inhibitor, single point]	
COc1ccc(C(CC(=O)O)NC(C)=O)cc1OC (stereo not given)	inconclusive: 5.62 µM [inhibitor, single point]	
O=C(CSc1ncnc2nc[nH]c12)c1ccccc1	inconclusive: 7.08 µM [inhibitor, full curve]	
CCOc1ccc(/C=C/C(=O)CCC(=O)O)cc1	inconclusive: 15.8 µM [activator, single point]	
Cc1ccc(N(CC(=O)NCCc2ccc(F)cc2)S(=O)(=O)c2ccc(Cl)c([N+](=O)[O-])c2)c(C)c1	inconclusive: 25.1 µM [inhibitor, single point]	
O=C1CC(N2CCN(S(=O)(=O)c3ccccc3)CC2)C(=O)N1c1ccccc1 (stereo not given)		inactive: -6.29% [at 9.22 µM]

SMILES	Potency	activity change, negative = inhibition
C=CCc1ccc(OCC(O)CN2CCC(Cc3ccccc3)CC2)c(OC)c1 (stereo not given)	inactive	
CCOC(=O)/C=c1\s/c(=C\c2ccc(C(F)(F)F)cc2)c(=O)n1CC(=O)NCc1ccco1	inconclusive: 10 µM [activator, partial curve]	
O=C(CSc1nc2ncccc2[nH]1)c1cccc([N+](=O)[O-])c1	inactive	
O=C(c1cc(-c2ccncc2)nc2ccc(Br)cc12)N1CCN(Cc2ccc3c(c2)OCO3)CC1	inconclusive: 25.1 µM [inhibitor, single point]	
Cn1c(=O)n(C)c2cc(NS(=O)(=O)c3ccc4c(c3)CCCC4)ccc21	active: 2.82 µM	
CCOc1ccc(N(C(=O)c2ccccc2Cl)C2=NC(C)(C)CS2)cc1	inconclusive: 25.1 µM [inhibitor, single point]	
O=C1c2ccccc2C(=O)N1c1ccc(Cc2ccncc2)cc1		inactive: 11.9% [at 9.22 µM]
COc1ccc(NC(=O)c2sc(SCc3ccccc3)nc2N)cc1	active: 25.1 µM	
Cc1cccc(/C=C2/SC(=O)N(Cc3ccccc3)C2=O)n1	inactive	
CCN(CC)c1ccc2cc(-c3nc4ccccc4n3C)c(=O)oc2c1	inconclusive: 0.631 µM [inhibitor, full curve]	
NS(=O)(=O)c1ccc(CCNc2ncnc3sccc23)cc1	inconclusive: 10 µM [inhibitor, partial curve]	
N/C(=N\OC(=O)Cc1ccccc1)c1ccccc1Cl	inconclusive: 11.2 µM [inhibitor, single point]	
O=C(CC1C(=O)NCCN1C(=S)Nc1ccccc1)Nc1ccc(F)cc1 (stereo not given)	inconclusive: 35.5 µM [activator, single point]	
O=[N+]([O-])c1ccc(N2CCN(C(=S)Nc3ccccc3)CC2)cc1	inactive	
COc1ccccc1NC(=O)CN1CCN(CC(=O)Nc2ccc(OCc3ccccc3)cc2)CC1	inconclusive: 35.5 µM [inhibitor, single point]	
CCc1noc(C)c1C(=O)Nc1nnc(C2CCCCC2)s1	inconclusive: 22.4 µM [inhibitor, partial curve, poor fit]	
O=C(CSc1ccc2ccccc2c1)Nc1nc2ccccc2[nH]1	inconclusive: 15.8 µM [activator, single point]	
Cn1nc(C(F)(F)F)c(C(=O)Nc2cccc(C(F)(F)F)c2)c1SCc1ccc(Cl)cc1	active: 12.6 µM	
CC1=CC(C)C2C(=O)N(c3ccccc3)NC(=O)C2C1 (stereo not given)	inactive	
Clc1ccc(CCNc2ncnc3nc[nH]c23)cc1	inconclusive: 11.2 µM [inhibitor, partial curve]	
COC(=O)Nc1ccc(S(=O)(=O)N2CCC(Cc3ccccc3)CC2)cc1	inconclusive: 15.8 µM [inhibitor, single point]	
CCC1=NN(C(=O)Cc2ccc([N+](=O)[O-])cc2)C(O)(c2ccc(Br)cc2)C1 (stereo not given)	inconclusive: 22.4 µM [inhibitor, single point]	

Entries listed so far with bromine:
SMILES	Potency	activity change, negative = inhibition
O=C(c1cc(-c2ccncc2)nc2ccc(Br)cc12)N1CCN(Cc2ccc3c(c2)OCO3)CC1	inconclusive: 25.1 µM [inhibitor, single point]	
CCC1=NN(C(=O)Cc2ccc([N+](=O)[O-])cc2)C(O)(c2ccc(Br)cc2)C1 (stereo not given)	inconclusive: 22.4 µM [inhibitor, single point]	
